## Screening data, single-dose tests

Amino acid sequences for entries named in this document (tags omitted).
UniProt P9WFT3, whole entry: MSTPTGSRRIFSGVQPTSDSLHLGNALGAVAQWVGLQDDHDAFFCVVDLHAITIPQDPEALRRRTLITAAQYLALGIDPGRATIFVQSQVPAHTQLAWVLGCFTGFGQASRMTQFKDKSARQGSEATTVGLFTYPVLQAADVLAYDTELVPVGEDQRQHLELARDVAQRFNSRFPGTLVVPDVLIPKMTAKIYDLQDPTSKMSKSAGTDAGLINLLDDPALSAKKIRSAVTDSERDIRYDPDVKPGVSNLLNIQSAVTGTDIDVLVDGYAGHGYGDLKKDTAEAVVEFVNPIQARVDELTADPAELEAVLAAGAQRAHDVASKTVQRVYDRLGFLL
UniProt P9WPC5, whole entry: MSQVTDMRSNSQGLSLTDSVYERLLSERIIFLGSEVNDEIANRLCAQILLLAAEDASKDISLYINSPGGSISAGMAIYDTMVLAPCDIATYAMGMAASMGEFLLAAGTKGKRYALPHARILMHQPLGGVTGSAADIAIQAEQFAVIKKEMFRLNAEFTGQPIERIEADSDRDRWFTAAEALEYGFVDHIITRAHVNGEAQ
UniProt P9WPC3, whole entry partner: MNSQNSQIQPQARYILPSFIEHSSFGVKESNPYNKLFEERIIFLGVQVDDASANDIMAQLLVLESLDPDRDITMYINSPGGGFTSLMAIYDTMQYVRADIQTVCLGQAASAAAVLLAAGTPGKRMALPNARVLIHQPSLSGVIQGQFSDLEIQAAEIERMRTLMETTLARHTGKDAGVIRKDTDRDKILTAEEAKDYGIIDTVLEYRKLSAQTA

A: 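Enzyme assay of tryptophanyl-tRNA synthetase; the read-out is not stated. Target: Tryptophan-tRNA ligase, Mycobacterium tuberculosis (UniProt P9WFT3). Tested at 10 µM. Higher most likely means stronger inhibition; the record gives no direction and few retests gave an IC50. Size under these conditions: about 65,000 compounds, about 64 of them at 50% or above in at least one test.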
B: 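ClpP1P2, Mycobacterium tuberculosis (UniProt P9WPC5 and UniProt P9WPC3). Protease assay of ClpP1P2, read by the AMC dye that it sets free. Concentration: 50 µM. Higher reads as stronger inhibition, judged from the few compounds that gave an IC50. Most other retested compounds had strongly negative values. About 69,000 compounds were tested under these conditions; 0.015% (about 10) showed 50% or more at least once.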

Results are given as percent effect. How 0% and 100% were set is not recorded. Most values in the screen are low, and negative values occur. Compounds were drawn at random from those tested, without regard to their results.

* O=c1cc(N2CCCCC2)cnn1CC(O)C(F)(F)F (stereo not drawn) | A: -1.677%; B: -13.28%
* CCc1ccc(C2CC(=O)Nc3cc(NS(C)(=O)=O)ccc32)o1 (stereo not drawn) | A: 7.097%; B: -42.94%
* COc1ccc(C(=O)CCC(=O)NCc2c(C)noc2C)cc1F | A: 2.488%; B: -13.4%
* Cc1ccc(C(=O)NCc2cccnc2N(C)C)s1 | A: -4.496%; B: -4.162%
* CN(C)CC(=O)N1CC(c2nn(C)c3nccnc23)C1 | B: 3.341%
* CC(C)c1nc(N2CC[C@@H](N(C)CCc3ccccn3)[C@H](O)C2)no1 | A: 12.82%; B: -8.408%
* Cc1ccccc1CN1CCN(c2ncnc3c2NC(=O)CN3)CC1 | A: 0.8911%; B: -40.89%
* CCOC(=O)N1CCN(c2nc(NC)c3ccccc3n2)CC1 | A: -4.824%; B: 3.326%
* O=C(c1cccc2cccnc12)N1CC[C@@]2(CCCO2)[C@@H](O)C1 | A: 8.471%; B: -31.97%
* CC(C)CNC(=O)c1nc2c(s1)CCN(C(=O)c1ccc(Cl)cc1)CC2 | A: 0%; B: -6.746%
* Cc1ccc(F)c(C(=O)Nc2c(C(N)=O)n[nH]c2C)c1 | A: -1.943%; B: 4.629%
* CC(=O)N1CCN(Cc2ccc(C(F)(F)F)c(F)c2)CC(O)C1 (stereo not drawn) | A: -3.473%; B: -33.47%
* CC(C)NC(=O)N1CCCC(Cn2cc(-c3ccc(F)cc3)nn2)C1 (stereo not drawn) | A: 12.4%; B: -13.87%
* O=C(NC1CC1)[C@H]1C[C@H]2OCC[C@H]2N(Cc2ccc3ccccc3n2)C1 | A: 4.848%; B: -2.882%
* C=C1C(C)(C)[C@H]2CC[C@]1(C(=O)N1CCC(Cn3cc(CO)nn3)CC1)C2 | A: -1.872%; B: -1.605%
* Fc1ccc2[nH]c3c(c2c1)CCN1C(c2ccccn2)N2CCC31CC2 (stereo not drawn) | A: -1.881%; B: 5.165%
* CCN1CCN(c2ccc(CNC(=O)c3ccc(Cl)o3)cn2)CC1 | A: 0.4223%; B: 6.526%
* CC(C(=O)Nc1ccnn1C(C)C)N1CCCN(c2nccs2)CC1 (stereo not drawn) | A: -1.484%; B: 3.077%
* O=C(NCC1(O)CCSC1)c1ccn(-c2ccccc2F)n1 (stereo not drawn) | A: -8.252%; B: -2.495%
* COCCN1CCN(C)C2(CCN(C(=O)c3ccnnc3)CC2)C1=O | A: -3.876%; B: 1.44%
* N#Cc1ccc(OCC(O)CN2CCC(Cn3cccn3)CC2)cc1 (stereo not drawn) | A: -0.5111%; B: -17.48%
* Cc1ccc(CN2CCn3c(C(=O)N(C)C)cnc3C2)s1 | A: 7.225%; B: 4.881%
* CCc1noc(CN(C)CCC(=O)Nc2ccccc2C#N)n1 | A: -5.31%; B: 3.766%
* CC(C)(C)C(=O)N1CCCC1(C(=O)N1CCCC1)c1cnccn1 (stereo not drawn) | A: 14.3%; B: 2.558%
* COCCCNC(=O)c1cc(C(C)C)nc(N2CCCCCC2)n1 | A: 0.7772%; B: -5.252%
* CCN1CCN(C(=O)c2ccc(=O)n(C)c2)c2ccccc21 | A: -6.671%; B: -8.556%
* O=C([C@H]1CCCN1)N1CC2(CCNCC2)c2cc(Cl)ccc21 | B: 3.937%
* CCc1ccc(O)c(C(=O)NC2CCN(Cc3ccncc3)CC2)c1 | A: 0.07424%; B: 25.99%
* Cc1scc(C(=O)N2CCC3(CC(=O)NC3=O)C2)c1-c1ccccc1 (stereo not drawn) | A: 5.65%; B: -11.04%
* CC(=O)N1CCN(Cn2nc(-c3ccc(F)cc3)oc2=O)CC1 | A: -2.478%; B: 15.99%
* COc1cccc(Cc2nnc(SCCS(C)(=O)=O)o2)c1 | A: 2.679%; B: -2.71%
* CN(CC(=O)Nc1nc2c(s1)CCCCCC2)C(=O)c1ccco1 | A: -3.284%; B: -2.132%
* NC(=O)c1ccn(COc2ccccc2Cl)n1 | A: -3.351%; B: -3.188%
* Cc1nnc([C@H]2C[C@@H]3CCN(Cc4ccc(C)o4)C[C@H]3O2)[nH]1 | A: -2.853%; B: -12.88%
* CCOc1ccc(C#N)cc1NCc1cc(C)on1 | A: 5.52%; B: -10.88%
* CN(C)CCOCC1CN(Cc2ccsc2)Cc2ccnn2C1 (stereo not drawn) | A: -2.205%; B: -15.14%
* CC(C)c1cc(C(=O)NCCCN(C)C)nc(N2CCCC2)n1 | A: 0.6477%; B: 6.974%

3 of the entries, repeated:

| Compound | A | B |
|---|---|---|
| `Cc1ccc(F)c(C(=O)Nc2c(C(N)=O)n[nH]c2C)c1` | -1.943 | 4.629 |
| `CC(C(=O)Nc1ccnn1C(C)C)N1CCCN(c2nccs2)CC1` (stereo not drawn) | -1.484 | 3.077 |
| `CC(=O)N1CCN(Cn2nc(-c3ccc(F)cc3)oc2=O)CC1` | -2.478 | 15.99 |

The values are deposited in ChEMBL (CHEMBL3988442, “University of Dundee, Small-Polar-MMV Screening Library” (2021)).